Among the data in the supplement of paper PMC6411743 are NP40-soluble protein abundance values, retold here.

By UniProt entry, the sequences of proteins in these tests, tags left out. Where a name states a change or a piece, a line headed by the entry shows the natural chain unless it says otherwise.
UniProt P28370, whole entry: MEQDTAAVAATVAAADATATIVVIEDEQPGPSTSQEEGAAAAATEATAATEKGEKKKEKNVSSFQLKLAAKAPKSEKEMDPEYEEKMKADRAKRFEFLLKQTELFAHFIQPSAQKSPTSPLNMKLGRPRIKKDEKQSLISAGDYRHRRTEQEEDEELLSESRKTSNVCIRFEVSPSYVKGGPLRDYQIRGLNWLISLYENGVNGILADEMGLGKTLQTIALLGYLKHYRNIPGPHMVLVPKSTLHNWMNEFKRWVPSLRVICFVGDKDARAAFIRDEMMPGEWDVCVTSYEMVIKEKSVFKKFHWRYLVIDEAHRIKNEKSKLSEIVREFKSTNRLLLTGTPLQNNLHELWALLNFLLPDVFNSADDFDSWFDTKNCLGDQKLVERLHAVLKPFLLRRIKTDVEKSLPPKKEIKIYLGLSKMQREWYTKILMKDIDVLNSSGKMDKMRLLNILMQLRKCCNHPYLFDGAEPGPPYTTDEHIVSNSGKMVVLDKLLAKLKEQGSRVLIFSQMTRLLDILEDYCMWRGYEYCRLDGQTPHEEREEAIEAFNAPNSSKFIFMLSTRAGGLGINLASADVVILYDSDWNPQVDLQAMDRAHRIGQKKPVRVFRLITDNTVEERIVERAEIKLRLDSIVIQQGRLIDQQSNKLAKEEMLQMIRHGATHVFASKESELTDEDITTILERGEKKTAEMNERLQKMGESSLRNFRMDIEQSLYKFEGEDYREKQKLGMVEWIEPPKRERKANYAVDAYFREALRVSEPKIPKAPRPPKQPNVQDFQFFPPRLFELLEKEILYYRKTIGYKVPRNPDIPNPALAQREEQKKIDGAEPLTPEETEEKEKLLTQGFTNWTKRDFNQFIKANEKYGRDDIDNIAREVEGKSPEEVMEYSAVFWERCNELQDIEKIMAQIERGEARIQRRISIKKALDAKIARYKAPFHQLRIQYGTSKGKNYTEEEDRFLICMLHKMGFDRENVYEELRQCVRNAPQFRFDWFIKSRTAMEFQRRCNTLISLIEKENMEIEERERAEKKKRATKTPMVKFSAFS
UniProt Q9UPT5: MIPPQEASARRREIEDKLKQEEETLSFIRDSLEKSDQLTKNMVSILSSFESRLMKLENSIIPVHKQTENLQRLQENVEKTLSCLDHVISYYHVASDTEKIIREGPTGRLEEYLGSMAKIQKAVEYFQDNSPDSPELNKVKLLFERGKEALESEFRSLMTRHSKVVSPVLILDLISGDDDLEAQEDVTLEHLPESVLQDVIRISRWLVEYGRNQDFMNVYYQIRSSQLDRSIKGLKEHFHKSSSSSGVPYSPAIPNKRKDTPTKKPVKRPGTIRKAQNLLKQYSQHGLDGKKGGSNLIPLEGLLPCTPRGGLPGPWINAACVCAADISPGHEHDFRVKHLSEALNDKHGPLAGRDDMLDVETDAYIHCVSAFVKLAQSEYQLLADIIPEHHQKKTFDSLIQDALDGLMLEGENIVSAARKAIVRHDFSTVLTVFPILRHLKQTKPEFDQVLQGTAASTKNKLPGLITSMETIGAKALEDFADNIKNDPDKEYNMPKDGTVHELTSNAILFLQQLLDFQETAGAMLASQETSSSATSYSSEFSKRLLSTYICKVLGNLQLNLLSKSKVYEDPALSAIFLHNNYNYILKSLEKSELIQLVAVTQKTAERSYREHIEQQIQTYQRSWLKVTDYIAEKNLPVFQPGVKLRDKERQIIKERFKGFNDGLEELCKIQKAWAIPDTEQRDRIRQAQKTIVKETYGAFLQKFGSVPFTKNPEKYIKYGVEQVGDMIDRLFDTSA
UniProt Q15111: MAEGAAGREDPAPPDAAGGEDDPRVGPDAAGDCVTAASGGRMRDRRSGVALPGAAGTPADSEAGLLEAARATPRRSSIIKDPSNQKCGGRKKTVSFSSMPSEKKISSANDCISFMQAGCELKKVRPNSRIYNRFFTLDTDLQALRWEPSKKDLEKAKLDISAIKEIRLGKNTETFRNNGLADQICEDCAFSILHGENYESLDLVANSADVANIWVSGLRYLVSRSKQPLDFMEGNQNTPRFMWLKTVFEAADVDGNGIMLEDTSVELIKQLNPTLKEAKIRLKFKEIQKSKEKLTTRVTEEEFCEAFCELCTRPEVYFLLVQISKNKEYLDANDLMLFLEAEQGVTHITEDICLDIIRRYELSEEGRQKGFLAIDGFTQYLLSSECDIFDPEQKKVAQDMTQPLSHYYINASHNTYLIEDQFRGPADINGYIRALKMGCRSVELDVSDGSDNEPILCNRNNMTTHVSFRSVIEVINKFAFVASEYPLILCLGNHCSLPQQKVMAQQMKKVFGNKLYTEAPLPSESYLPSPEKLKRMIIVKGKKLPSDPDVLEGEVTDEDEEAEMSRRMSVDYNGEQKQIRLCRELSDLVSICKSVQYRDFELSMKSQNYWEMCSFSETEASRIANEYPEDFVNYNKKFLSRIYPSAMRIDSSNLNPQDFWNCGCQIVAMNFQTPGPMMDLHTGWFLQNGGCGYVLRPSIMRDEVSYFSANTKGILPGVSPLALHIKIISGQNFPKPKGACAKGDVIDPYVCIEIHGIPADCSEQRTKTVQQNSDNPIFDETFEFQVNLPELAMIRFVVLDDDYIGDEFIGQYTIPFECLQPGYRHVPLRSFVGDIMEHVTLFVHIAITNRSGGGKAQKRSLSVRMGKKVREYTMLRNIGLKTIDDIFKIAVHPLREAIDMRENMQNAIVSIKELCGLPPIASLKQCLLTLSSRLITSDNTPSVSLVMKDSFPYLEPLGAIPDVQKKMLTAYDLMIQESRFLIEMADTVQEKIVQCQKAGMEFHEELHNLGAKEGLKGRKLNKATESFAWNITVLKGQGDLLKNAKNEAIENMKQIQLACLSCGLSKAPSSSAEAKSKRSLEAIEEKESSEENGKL
UniProt Q5XKP0: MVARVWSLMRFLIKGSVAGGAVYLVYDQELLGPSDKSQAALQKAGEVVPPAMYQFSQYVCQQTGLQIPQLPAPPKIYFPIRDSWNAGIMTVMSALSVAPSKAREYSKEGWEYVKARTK

± gives the standard deviation of the averaged measurements. Only a part is listed here, and it is no random draw.

Compound in the experiment: Nc1ncnc2c1ncn2[C@@H]1O[C@H](COP(=O)(O)OP(=O)(O)NP(=O)(O)O)[C@@H](O)[C@H]1O [adenylyl imidodiphosphate]
Nature of the experiment: NP40-soluble protein abundance relative to vehicle (solubility fold change) (ratio); higher = more soluble protein in presence of AMP-PNP. The method in brief: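 Crude Jurkat lysate, prepared by Dounce homogenisation, was exposed to eight concentrations from 0.1 to 10 mM for 10 min at room temperature and then 3 min at 37 °C. Solubilisation used 0.8% NP40 with benzonase for 60 min at 4 °C, followed by ultracentrifugation and TMT labelling of the supernatant for LC-MS/MS. After vsn normalisation of intensities, each value is the fold change against the detergent-processed vehicle within each replicate, across three independent experiments.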

“A0A0A0MRP6|B7ZLQ5 and related entries (UniProt P28370)”: the NP40-soluble protein abundance stood at 1.03 ± 0.058 (concentration: 1mM); 1.02 ± 0.049 (concentration: 2mM); 1.09 ± 0.064 (concentration: 4mM); 1.06 ± 0.055 (concentration: 6mM); 1.11 ± 0.049 (concentration: 8mM); 1.09 ± 0.046 (concentration: 10mM).
Take A0A087WZ62: the NP40-soluble protein abundance runs as follows: (concentration: 1mM) 0.976 ± 0.026; (concentration: 2mM) 0.963 ± 0.027; (concentration: 4mM) 0.931 ± 0.022; (concentration: 6mM) 0.952 ± 0.014; (concentration: 8mM) 0.946 ± 0.028; (concentration: 10mM) 0.936 ± 0.017.
“A0A0A0MSB8|Q9UPT5 and related entries (UniProt Q9UPT5)”: the NP40-soluble protein abundance came out at 0.982 ± 0.019 (concentration: 1mM); 1 ± 0.048 (concentration: 2mM); 0.9615 ± 0.0086 (concentration: 4mM); 0.9529 ± 0.0078 (concentration: 6mM); 0.948 ± 0.012 (concentration: 8mM); 0.9521 ± 0.0061 (concentration: 10mM).
On to “A0A0A0MT40|H3BUD4 and related entries (UniProt Q15111)”, for which the NP40-soluble protein abundance (concentration: 1mM) turned out to be 0.9731 ± 0.0056; the NP40-soluble protein abundance (concentration: 2mM) stood at 0.984 ± 0.013; the NP40-soluble protein abundance (concentration: 4mM) turned out to be 0.958 ± 0.011; the NP40-soluble protein abundance (concentration: 6mM) was 1 ± 0.025; the NP40-soluble protein abundance (concentration: 8mM) was 0.994 ± 0.034; the NP40-soluble protein abundance (concentration: 10mM) was 0.991 ± 0.023.
With A0A140TA86|Q5XKP0 (UniProt Q5XKP0), the NP40-soluble protein abundance turned out to be 0.9908 ± 0.0084 (concentration: 1mM); 0.971 ± 0.021 (concentration: 2mM); 0.9312 ± 0.0053 (concentration: 4mM); 0.968 ± 0.021 (concentration: 6mM); 0.951 ± 0.019 (concentration: 8mM); 0.9451 ± 0.0032 (concentration: 10mM).
